Data as given in PubChem BioAssay AID1259308 (NCATS, 2017)
The deposit covers about 59,000 reagents; below is a random part of them. Over the whole deposit, about 1,510 (2.6%) were called active. 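Calls use total luciferase alone and ignore viability, so some active siRNAs may act by altering cell number.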 Reagents against one gene are numbered here. Further read-outs or replicates are left out here. Reagent sequences are not shown.

- Assay: 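Genes whose loss raises luciferase production in HEK293 cells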 (primary screen)
- Cells: human HEK293 embryonic kidney cells stably expressing firefly luciferase (HEK-CMV-Luc2-Hygro)
- Reagent: single siRNA against human genes, 0.8 pmol siRNA per well
- Time to read-out: 72 h
- Detection: 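Reporter luminescence and viable-cell signal on separate replicate plates, given as percent of non-targeting control and median/MAD z-scores, plus per-cell luciferase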
- Scale: total luciferase, z-score and total luciferase, % of control: higher = more reporter protein produced
- Rule for the call: 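Active when the median/MAD z-score for overall luciferase is greater than 3; a gene was taken forward for validation with new siRNAs if at least two of its three siRNAs passed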
- Calls: active = raised luciferase; inactive = no rise

GDF10 (growth differentiation factor 10) #1: total luciferase, z-score = 1.24; total luciferase, % of control = 107; activity call = inactive
GDF10 (growth differentiation factor 10) #2: total luciferase, z-score = -0.375; total luciferase, % of control = 74.4; activity call = inactive
GDF10 (growth differentiation factor 10) #3: total luciferase, z-score = -1.59; total luciferase, % of control = 50.3; activity call = inactive
RPL10L (ribosomal protein L10 like) #1: total luciferase, z-score = -1.44; total luciferase, % of control = 53.2; activity call = inactive
RPL10L (ribosomal protein L10 like) #2: total luciferase, z-score = 0.632; total luciferase, % of control = 94.5; activity call = inactive
RPL10L (ribosomal protein L10 like) #3: total luciferase, z-score = -1.86; total luciferase, % of control = 44.8; activity call = inactive
ITGAD (integrin subunit alpha D) #1: total luciferase, z-score = 0.391; total luciferase, % of control = 89.7; activity call = inactive
ITGAD (integrin subunit alpha D) #2: total luciferase, z-score = -0.115; total luciferase, % of control = 79.6; activity call = inactive
ITGAD (integrin subunit alpha D) #3: total luciferase, z-score = -0.641; total luciferase, % of control = 69.1; activity call = inactive
FMO3 (flavin containing dimethylaniline monoxygenase 3) #1: total luciferase, z-score = -1.37; total luciferase, % of control = 54.6; activity call = inactive
FMO3 (flavin containing dimethylaniline monoxygenase 3) #2: total luciferase, z-score = 0.38; total luciferase, % of control = 89.5; activity call = inactive
FMO3 (flavin containing dimethylaniline monoxygenase 3) #3: total luciferase, z-score = 1.27; total luciferase, % of control = 107; activity call = inactive
DHX38 (DEAH-box helicase 38) #1: total luciferase, z-score = 2.17; total luciferase, % of control = 125; activity call = inactive
DHX38 (DEAH-box helicase 38) #2: total luciferase, z-score = 0.00567; total luciferase, % of control = 82; activity call = inactive
DHX38 (DEAH-box helicase 38) #3: total luciferase, z-score = 0.413; total luciferase, % of control = 90.1; activity call = inactive
LILRA2 (leukocyte immunoglobulin like receptor A2) #1: total luciferase, z-score = 2.4; total luciferase, % of control = 130; activity call = inactive
LILRA2 (leukocyte immunoglobulin like receptor A2) #2: total luciferase, z-score = -1.04; total luciferase, % of control = 61.2; activity call = inactive
LILRA2 (leukocyte immunoglobulin like receptor A2) #3: total luciferase, z-score = 1.27; total luciferase, % of control = 107; activity call = inactive
LINC02687 (long independently transcribed non-coding RNA 2687) #1: total luciferase, z-score = 0.212; total luciferase, % of control = 86.1; activity call = inactive
LINC02687 (long independently transcribed non-coding RNA 2687) #2: total luciferase, z-score = -0.42; total luciferase, % of control = 73.5; activity call = inactive
LINC02687 (long independently transcribed non-coding RNA 2687) #3: total luciferase, z-score = -1.49; total luciferase, % of control = 52.2; activity call = inactive

Taken from above:
Entry for LILRA2 (leukocyte immunoglobulin like receptor A2) #2 in “activity call”: inactive
Value for GDF10 (growth differentiation factor 10) #3 in “activity call”: inactive
Result of LINC02687 (long independently transcribed non-coding RNA 2687) #3 under “total luciferase, % of control”: 52.2
FMO3 (flavin containing dimethylaniline monoxygenase 3) #1, activity call → inactive
LINC02687 (long independently transcribed non-coding RNA 2687) #2, activity call → inactive
Value of ITGAD (integrin subunit alpha D) #2 under “total luciferase, z-score”: -0.115

Further entries:
TUBA1C (tubulin alpha 1c) #1: total luciferase, z-score = 0.824; total luciferase, % of control = 98.3; activity call = inactive
TUBA1C (tubulin alpha 1c) #2: total luciferase, z-score = -0.024; total luciferase, % of control = 81.4; activity call = inactive
TUBA1C (tubulin alpha 1c) #3: total luciferase, z-score = 0.636; total luciferase, % of control = 94.5; activity call = inactive
CHORDC1 (cysteine and histidine rich domain containing 1) #1: total luciferase, z-score = 0.568; total luciferase, % of control = 93.2; activity call = inactive
CHORDC1 (cysteine and histidine rich domain containing 1) #2: total luciferase, z-score = -0.24; total luciferase, % of control = 77.1; activity call = inactive
CHORDC1 (cysteine and histidine rich domain containing 1) #3: total luciferase, z-score = -0.547; total luciferase, % of control = 71; activity call = inactive
DHRS11 (dehydrogenase/reductase 11) #1: total luciferase, z-score = 0.867; total luciferase, % of control = 99.1; activity call = inactive
DHRS11 (dehydrogenase/reductase 11) #2: total luciferase, z-score = -0.367; total luciferase, % of control = 74.6; activity call = inactive
DHRS11 (dehydrogenase/reductase 11) #3: total luciferase, z-score = -0.721; total luciferase, % of control = 67.5; activity call = inactive
LOC401957 (matrin 3 pseudogene) #1: total luciferase, z-score = 1.71; total luciferase, % of control = 116; activity call = inactive
LOC401957 (matrin 3 pseudogene) #2: total luciferase, z-score = -0.578; total luciferase, % of control = 70.4; activity call = inactive
LOC401957 (matrin 3 pseudogene) #3: total luciferase, z-score = 0.709; total luciferase, % of control = 96; activity call = inactive
TMEM168 (transmembrane protein 168) #1: total luciferase, z-score = 0.433; total luciferase, % of control = 90.5; activity call = inactive
TMEM168 (transmembrane protein 168) #2: total luciferase, z-score = -0.399; total luciferase, % of control = 73.9; activity call = inactive
TMEM168 (transmembrane protein 168) #3: total luciferase, z-score = 0.186; total luciferase, % of control = 85.6; activity call = inactive
IL3RA (interleukin 3 receptor subunit alpha) #1: total luciferase, z-score = -1.57; total luciferase, % of control = 50.7; activity call = inactive
IL3RA (interleukin 3 receptor subunit alpha) #2: total luciferase, z-score = 0.0023; total luciferase, % of control = 81.9; activity call = inactive
IL3RA (interleukin 3 receptor subunit alpha) #3: total luciferase, z-score = -0.193; total luciferase, % of control = 78.1; activity call = inactive
RFX4 (regulatory factor X4) #1: total luciferase, z-score = 1.21; total luciferase, % of control = 106; activity call = inactive
RFX4 (regulatory factor X4) #2: total luciferase, z-score = -0.878; total luciferase, % of control = 64.4; activity call = inactive
RFX4 (regulatory factor X4) #3: total luciferase, z-score = 1.79; total luciferase, % of control = 118; activity call = inactive
